# Reference: patent US20170088851A1, “METHODS FOR IMPROVING ABIOTIC STRESS RESPONSE” (The Regents of the University of California, priority 2011, published 2017)
# B1: MAF5-HA: HA-tagged MADS AFFECTING FLOWERING(MAF)5 (protein, UniProt Q683D7 1-198, looked up)
# Protein MADS AFFECTING …: MGRRRVEIKRIENKSSRQVTFCKRRNGLMEKARQLSILCGSSVALFIVSSTGKLYNSSSGDSMAKIISRFKIQQADDPETLDLEDKTQDYLSHKELLEIVQRKIEEAKGDNVSIESLISMEEQLKSALSVIRARKTELLMELVKNLQDKEKLLKEKNKVLASEVGKLKKILETGDERAVMSPENSSGHSPPETLPLLK
# modifications: HA tag
# B2: VRN2-HA: HA-tagged Arabidopsis …ON (VRN)2, an MC- protein (protein, UniProt Q8W5B1 1-440, looked up)
# Polycomb group protein …: MCRQNCRAKSSPEEVISTDENLLIYCKPVRLYNIFHLRSLGNPSFLPRCLNYKIGAKRKRKSRSTGMVVFNYKDCNNTLQRTEVREDCSCPFCSMLCGSFKGLQFHLNSSHDLFEFEFKLLEEYQTVNVSVKLNSFIFEEEGSDDDKFEPFSLCSKPRKRRQRGGRNNTRRLKVCFLPLDSPSLANGTENGIALLNDGNRGLGYPEATELAGQFEMTSNIPPAIAHSSLDAGAKVILTTEAVVPATKTRKLSAERSEARSHLLLQKRQFYHSHRVQPMALEQVMSDRDSEDEVDDDVADFEDRQMLDDFVDVNKDEKQFMHLWNSFVRKQRVIADGHISWACEVFSRFYEKELHCYSSLFWCWRLFLIKLWNHGLVDSATINNCNTILENCRNTSVTNNNNNSVDHPSDSNTNNNNIVDHPNDIKNKNNVDNKDNNSRDK
# modifications: HA tag
# notes: HA-tagged Arabidopsis …ON (VRN)2, an MC- protein
# B3: VRN2^c2A-HA: VRN2-HA with C2A mutation (protein, UniProt Q8W5B1 1-440, looked up, variant C2A)
# Polycomb group protein …: B2 Polycomb group protein … with C2A
# modifications: HA tag
# notes: VRN2-HA with C2A mutation
# System: N-end rule pathway of targeted proteolysis (NERP)
# Experiment: In vitro protein stability, heterologous rabbit reticulocyte lysate assay (TNT T7 Coupled Reticulocyte Lysate system, anti-HA immunoblot)
# Format: biochemical
# Conditions: no inhibitor
# Method: Protein stability analyses. Full length cDNAs were PCR amplified from either Arabidopsis thaliana or Oryza sativa L. (cv. M202 (Sub1)). N-terminal mutations were introduced using a specific forward primer. For in vitro assays, cDNAs were cloned into a modified version of the pTNT vector (Promega) to produce C-terminal HA fusions. Stability assays were performed using the TNT T7 Coupled Reticulocyte Lysate system (Promega), essentially as described previously^23. For in vivo analysis of EIRE-HA proteins, cDNAs were cloned into pE2c, mobilized into pB2GW7 and transformed into Arabidopsis using the floral dip method. To Assess relative protein stability, equal amounts of total protein extracted from 7-day old T3 homozygous seedlings were analyzed by Western blot, and cDNA synthesized from total RNA was used as a template for semi-quantitative PCR.
# In vitro analysis of protein stability: To generate Arabidopsis and rice protein-HA fusions driven by the T7 promoter, cDNAs were PCR amplified from Arabidopsis total cDNA or submerged rice cDNA (M202 (Sub1); as described^3 and ligated into a modified version of the pTNT […] expression vector (pTNT3xHA). N-terminal mutations were incorporated by changing the forward primer sequences accordingly (Table 1). Proteins were expressed in vitro using the TNT T7 Coupled Reticulocyte Lysate system (Promega) according to manufacturer's guidelines, using 500 ng plasmid template. Where appropriate, 100 μM MG132 or 1 mM dipeptides (arg-β-ala or ala-ala; Sigma-Aldrich) and […] Bestatin (Sigma-Aldrich) were added. Reactions were incubated at 30° C., and samples were taken at appropriate time points before mixing with protein loading dye to terminate protein synthesis. Equal amounts of each reaction were subjected to anti-HA immunoblot analysis.
# Immunoblotting: Proteins resolved by SDS-PAGE were transferred to PVDF using a MiniTrans-Blot electrophoretic transfer cell (Bio-Rad). […]
row,Molecule,in vitro stability of the protein
1,B1,stable
2,B2,degraded
3,B3,stabilized

# Where a chain is given by its changes, count along the chain named. In names and notes the source's numbering stands.
